Results published in patent US20240254119A1 (THIRD HARMONIC BIO, INC., priority 2022, published 2024).
The match of structure and compound is tentative.

Sequences of proteins named here, by UniProt entry; tags and fusion partners are left off. Residues count along the entry.
UniProt P07333, 20-972 limits assumed: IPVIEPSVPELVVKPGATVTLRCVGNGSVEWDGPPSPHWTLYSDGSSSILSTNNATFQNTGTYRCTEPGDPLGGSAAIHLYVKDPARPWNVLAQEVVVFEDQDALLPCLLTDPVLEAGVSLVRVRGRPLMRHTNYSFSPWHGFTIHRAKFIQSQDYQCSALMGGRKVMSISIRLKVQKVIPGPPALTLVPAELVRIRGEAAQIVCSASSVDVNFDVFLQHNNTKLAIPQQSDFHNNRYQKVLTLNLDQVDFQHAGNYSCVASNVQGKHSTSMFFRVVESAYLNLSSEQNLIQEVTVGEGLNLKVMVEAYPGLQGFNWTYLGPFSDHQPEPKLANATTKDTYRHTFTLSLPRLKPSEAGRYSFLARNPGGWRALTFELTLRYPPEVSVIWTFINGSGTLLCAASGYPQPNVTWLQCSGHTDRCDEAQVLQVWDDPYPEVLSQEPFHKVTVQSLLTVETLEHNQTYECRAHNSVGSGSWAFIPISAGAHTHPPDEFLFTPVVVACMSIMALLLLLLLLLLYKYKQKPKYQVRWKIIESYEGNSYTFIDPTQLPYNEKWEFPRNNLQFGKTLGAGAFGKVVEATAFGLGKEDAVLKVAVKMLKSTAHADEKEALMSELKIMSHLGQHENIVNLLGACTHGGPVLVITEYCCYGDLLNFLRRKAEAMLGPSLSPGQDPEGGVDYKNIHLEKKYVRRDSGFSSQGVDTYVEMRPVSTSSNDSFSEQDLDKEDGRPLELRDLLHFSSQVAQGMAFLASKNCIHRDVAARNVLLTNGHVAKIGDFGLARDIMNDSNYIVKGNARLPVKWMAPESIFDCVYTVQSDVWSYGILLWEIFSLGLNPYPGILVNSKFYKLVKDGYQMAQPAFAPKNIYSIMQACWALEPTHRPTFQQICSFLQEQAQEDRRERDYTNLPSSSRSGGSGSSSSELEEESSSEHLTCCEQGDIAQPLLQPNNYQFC
UniProt P10721, 26-976 limits assumed: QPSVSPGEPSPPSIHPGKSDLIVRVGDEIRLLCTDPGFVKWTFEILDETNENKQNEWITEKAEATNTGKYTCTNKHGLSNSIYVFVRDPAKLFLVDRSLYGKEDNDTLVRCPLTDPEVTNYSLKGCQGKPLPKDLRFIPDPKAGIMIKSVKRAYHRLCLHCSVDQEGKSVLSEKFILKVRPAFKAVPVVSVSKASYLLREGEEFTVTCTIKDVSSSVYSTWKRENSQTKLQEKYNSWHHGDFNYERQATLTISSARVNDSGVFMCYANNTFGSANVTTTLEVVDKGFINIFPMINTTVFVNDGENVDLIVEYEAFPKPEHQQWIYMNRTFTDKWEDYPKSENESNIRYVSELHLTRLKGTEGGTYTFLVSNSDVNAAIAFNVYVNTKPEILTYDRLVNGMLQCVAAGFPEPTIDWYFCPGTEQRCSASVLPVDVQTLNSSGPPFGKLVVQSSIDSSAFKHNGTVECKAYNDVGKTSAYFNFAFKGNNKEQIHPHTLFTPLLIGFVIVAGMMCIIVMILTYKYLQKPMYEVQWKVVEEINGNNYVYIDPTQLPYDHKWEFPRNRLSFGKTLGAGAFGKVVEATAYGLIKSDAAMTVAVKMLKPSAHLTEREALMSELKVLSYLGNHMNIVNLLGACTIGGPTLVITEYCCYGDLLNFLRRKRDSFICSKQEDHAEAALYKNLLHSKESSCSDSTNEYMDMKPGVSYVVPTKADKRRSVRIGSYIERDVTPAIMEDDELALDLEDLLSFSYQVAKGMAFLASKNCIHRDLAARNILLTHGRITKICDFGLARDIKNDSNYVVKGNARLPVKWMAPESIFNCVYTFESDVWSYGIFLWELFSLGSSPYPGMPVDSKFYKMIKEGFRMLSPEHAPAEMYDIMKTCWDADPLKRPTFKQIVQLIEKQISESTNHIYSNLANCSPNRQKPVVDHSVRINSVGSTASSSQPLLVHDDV
UniProt P16234, 24-1089 limits assumed: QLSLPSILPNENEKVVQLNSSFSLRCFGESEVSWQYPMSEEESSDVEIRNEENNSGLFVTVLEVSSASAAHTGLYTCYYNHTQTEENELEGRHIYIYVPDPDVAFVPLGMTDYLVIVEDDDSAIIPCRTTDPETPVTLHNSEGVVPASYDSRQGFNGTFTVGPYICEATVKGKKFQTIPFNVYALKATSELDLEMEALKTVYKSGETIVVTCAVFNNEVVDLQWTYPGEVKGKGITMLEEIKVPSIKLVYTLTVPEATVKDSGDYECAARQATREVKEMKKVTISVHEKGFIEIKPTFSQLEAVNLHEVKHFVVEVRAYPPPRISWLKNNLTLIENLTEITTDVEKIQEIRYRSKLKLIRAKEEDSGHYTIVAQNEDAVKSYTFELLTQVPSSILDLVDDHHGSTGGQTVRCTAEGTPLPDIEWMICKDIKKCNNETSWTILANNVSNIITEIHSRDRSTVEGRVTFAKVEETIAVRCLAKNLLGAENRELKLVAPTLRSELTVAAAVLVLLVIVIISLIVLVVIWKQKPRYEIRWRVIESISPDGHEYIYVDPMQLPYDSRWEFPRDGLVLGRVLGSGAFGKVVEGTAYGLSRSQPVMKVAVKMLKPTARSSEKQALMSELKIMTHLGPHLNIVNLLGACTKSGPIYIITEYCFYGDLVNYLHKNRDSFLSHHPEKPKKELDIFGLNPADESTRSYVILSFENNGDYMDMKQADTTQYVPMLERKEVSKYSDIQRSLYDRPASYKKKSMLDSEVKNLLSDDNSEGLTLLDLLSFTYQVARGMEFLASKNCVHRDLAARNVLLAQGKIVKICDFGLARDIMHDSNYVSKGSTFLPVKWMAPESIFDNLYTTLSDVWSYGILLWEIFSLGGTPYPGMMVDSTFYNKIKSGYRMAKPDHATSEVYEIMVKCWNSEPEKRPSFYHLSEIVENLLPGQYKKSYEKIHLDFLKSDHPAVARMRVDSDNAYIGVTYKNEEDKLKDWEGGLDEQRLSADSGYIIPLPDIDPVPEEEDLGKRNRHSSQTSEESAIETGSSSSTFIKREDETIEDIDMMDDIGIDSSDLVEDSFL

Experiments:
Kinetic solubility assay = details: 50 mM PB (pH 7.4), shaken 24 hours at RT
CSF-1R = CSF-1R (Homo sapiens, UniProt P07333); test: Caliper biochemical assay, CSF-1R; details: read-out: CSF-1R Biochemical IC50, Table 6
wtKIT = wtKIT (Homo sapiens, UniProt P10721); test: Caliper biochemical assay, wtKIT; details: read-out: KIT Biochemical IC50 avg, Table 6
PDGFRα = PDGFRα (Homo sapiens, UniProt P16234); test: Caliper biochemical assay, PDGFRα; details: read-out: PDGFRα Biochemical Avg IC50, Table 6

With `COC(=O)N1CC(c2nc(-c3ccc(OC)c(NC(=O)c4cnc5ccccn45)c3)no2)C1` the “Solubility (μM)” value (Kinetic solubility assay) was “*** (a solubility greater than 2 μM and less than or equal to 10 μM)”, the IC50 (CSF-1R) was 0.5 to 5 µM and the IC50 (wtKIT) was 0.05 to 0.5 µM. The IC50 (PDGFRα) was 5 to 30 µM.
